Percent effect of library compounds

Data taken from ChEMBL document CHEMBL3988442, “University of Dundee, Small-Polar-MMV Screening Library” (2021).

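Whole-cell growth test on Mycobacterium tuberculosis, read after 3 days in glucose-containing 7H9 medium; the read-out is not stated. Compounds at 500 µM. Higher reads as more growth inhibition (inferred: compounds with an IC50 in retests scored well above the rest). About 18,000 compounds were tested under these conditions; 7.9% (about 1,400) showed 50% or more at least once.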

Results are given as percent effect. The record does not define 0% and 100%; most values in the screen are far below 50% and negative numbers occur (in some assays of this library far below -100). The compounds are a random part of those screened.

{"compound": "CC(C)CC(C)(CN)NS(C)(=O)=O", "stereo": "centres undefined", "effect": -1.049}
{"compound": "O=C(c1cc(-n2cnnn2)ccc1Br)N1CCOCC1", "effect": 0.374}
{"compound": "O=C(Nc1ccccc1N1CCCC1)C1CCCN1", "stereo": "centres undefined", "effect": 19.84}
{"compound": "CCN(Cc1ccc(Cl)c(Cl)c1)C(=O)CCS(C)(=O)=O", "effect": 62.17}
{"compound": "CNC(=O)C(NC(=O)c1cnccn1)c1ccccc1", "stereo": "centres undefined", "effect": 3.919}
{"compound": "COC1CCN(S(=O)(=O)N2C[C@H](C3CC3)[C@@H](N)C2)CC1", "effect": -1.997}
{"compound": "CN(C)c1ccccc1C(=O)N1CCCC(C)(O)CC1", "stereo": "centres undefined", "effect": 6.689}
{"compound": "CN(C)[C@@H]1CN(C(=O)C2CCC2)C[C@H]1CO", "effect": -19.29}
{"compound": "Cn1c(=O)ccn(CC(=O)Nc2ncccc2O)c1=O", "effect": -2.146}
{"compound": "CC(C)NC(=O)CNC(C)Cn1cncn1", "stereo": "centres undefined", "effect": 12.24}
{"compound": "CC[C@H](N)c1ccccc1F", "effect": 28.38}
{"compound": "CCOC(=O)N1CCC(Nc2ncccc2C#N)CC1", "effect": -15.91}
{"compound": "CCn1cc(Br)c(=O)c(NC(=O)[C@@H]2CCCO2)c1", "effect": 12.92}
{"compound": "CCCNCCc1ccccn1", "effect": 16.4}
{"compound": "CN1CCN(CCNC(=O)c2ccc(Cl)cc2Cl)CC1", "effect": -0.7457}
{"compound": "COCCN(C)Cc1ccnc(N)c1", "effect": 4.377}
{"compound": "Cc1occc1[S+]([O-])CC(=O)NCC(F)(F)F", "stereo": "centres undefined", "effect": -1.249}
{"compound": "O=C(CCc1ccncc1)N1CCCCC1", "effect": 32.07}
{"compound": "NCc1ccc(OCC2CC2)nc1", "effect": 41.96}
{"compound": "CCCC(O)(CCC)CNC(=O)c1cccnc1", "effect": 42.65}
{"compound": "Brc1ccc(N2CCNCC2)nc1", "effect": 57.67}
{"compound": "COCC(C)NS(=O)(=O)c1cccs1", "stereo": "centres undefined", "effect": 16.75}
{"compound": "COCCOCCS(=O)(=O)NCCc1ccccn1", "effect": 12.67}
{"compound": "CCCS(=O)(=O)c1ccccc1C(=O)NC(C)C", "effect": 11.52}
{"compound": "CS(=O)(=O)CCS(=O)(=O)CC=Cc1ccccc1", "effect": -1.631}
{"compound": "CC(=O)c1cc(CN2CCCC2c2nc(C)n[nH]2)cs1", "stereo": "centres undefined", "effect": 2.568}
{"compound": "Cc1nnc(C2CCCN2)o1", "stereo": "centres undefined", "effect": -5.276}
{"compound": "O=C(Cc1cccc(O)c1)NCCN1CC=CC1", "effect": 13.26}
{"compound": "CC1CN(c2nccnc2C#N)CCN1", "stereo": "centres undefined", "effect": 2.85}
{"compound": "O=C1CN(CC(=O)Nc2c(Cl)cccc2Cl)CCN1", "effect": -15.61}
{"compound": "CC(O)CN(C)c1cc(N2CCCCC2)ncn1", "stereo": "centres undefined", "effect": 37.46}
{"compound": "CCOC(=O)CSCC(=O)NC(=O)NCc1ccco1", "effect": 6.527}

Some entries from above, unchanged:

| compound | effect |
|---|---|
| `CCn1cc(Br)c(=O)c(NC(=O)[C@@H]2CCCO2)c1` | 12.92 |
| `O=C(Nc1ccccc1N1CCCC1)C1CCCN1` (centres undefined) | 19.84 |